{"source": "paper PMC12670160", "about": "“A drug-repurposing screen of FDA- and EMA-approved drugs identifies two NF-κB inhibitors active against eumycetoma” (Journal of Antimicrobial Chemotherapy, 2025)", "note": "Where a name gives a salt, the structure may show the parent alone. The campaign covered roughly 5,300 compounds. About 130 (2.5%) showed an effect of 50% or more. This is one part of the list.", "data": [{"tested_on": "M. mycetomatis strain mm55", "conditions": "primary screen, metabolic activity vs growth control; 96 h, 2 µM; inhibitor", "units": {"% viability": "%"}, "values": [{"smiles": "CC(=O)CC(c1ccccc1)c1c(O)c2ccccc2oc1=O", "note": "(stereo not shown) [ONC0003214, warfarin]", "% viability": 83.77}, {"smiles": "CC(C)COc1ccc(CNC(=O)N(Cc2ccc(F)cc2)C2CCN(C)CC2)cc1", "note": "[ONC0002034, pimavanserin]", "% viability": 65.08}, {"smiles": "O=c1oc2c(O)c(O)cc3c(=O)oc4c(O)c(O)cc1c4c23", "note": "[ONC0004174, ellagic acid]", "% viability": 100.6}, {"smiles": "COc1ccc(/C=C/C(=O)/C=C(O)/C=C/c2ccc(OC)c(OC)c2)cc1OC", "note": "[ONC0000397, dimethylcurcumin ascj9]", "% viability": 61.62}, {"smiles": "Cc1cn([C@H]2O[C@@H](CO)[C@H](O)[C@@H]2F)c(=O)[nH]c1=O", "note": "[ONC0004549, clevudine levovir]", "% viability": 61.35}, {"smiles": "CCOc1ccc(-n2c([C@@H](C)N(Cc3cccnc3)C(=O)Cc3ccc(OC(F)(F)F)cc3)nc3ncccc3c2=O)cc1", "note": "[ONC0000982, amg 487]", "% viability": 79.82}, {"smiles": "CNC(=O)c1ccccc1Nc1cc(Nc2ccc(N3CCOCC3)cc2OC)ncc1C(F)(F)F", "note": "[ONC0004282, pnd1186]", "% viability": 90.77}, {"smiles": "Oc1cc(O)c2c(c1)O[C@H](c1ccc(O)c(O)c1)[C@H](O)[C@H]2c1c(O)cc(O)c2c1O[C@H](c1ccc(O)c(O)c1)[C@H](O)C2", "note": "[ONC0002081, procyanidin b2]", "% viability": 61.64}, {"smiles": "CNC(=O)c1cc(Oc2ccc(NC(=O)Nc3ccc(Cl)c(C(F)(F)F)c3)cc2)ccn1", "note": "[ONC0004748, sorafenib tosylate]", "% viability": 93.97}, {"smiles": "COc1cc2nc(C3CC3)nc(N3CCN(c4ccccc4OC)CC3)c2cc1OC", "note": "[ONC0001378, ml314]", "% viability": 86.22}, {"smiles": "COc1cccc2c1C(=O)c1c(O)c3c(c(O)c1C2=O)C[C@@](O)(C(C)=O)C[C@@H]3O[C@H]1C[C@H](N)[C@H](O)[C@H](C)O1", "note": "[ONC0001686, daunorubicin]", "% viability": 72.25}, {"smiles": "Cc1c(N2C(=O)[C@@H]3[C@H](O)CCN3C2=O)ccc(C#N)c1Cl", "note": "[ONC0002510, bms564929]", "% viability": 79.85}, {"smiles": "COc1cc(C[C@H]2c3cc(OC)c(OC)cc3CCN2C)c(Oc2cc3c(cc2OC)-c2c(OC)c(OC)cc4c2[C@H](C3)N(C)CC4)cc1OC", "note": "[ONC0002973, thaliblastine]", "% viability": 64.41}, {"smiles": "C=CC(=O)Nc1cc2c(Nc3ccc(F)c(Cl)c3)ncnc2cc1C#CC(C)(C)N1CCN(C)CC1", "note": "[ONC0005448, av412 free base]", "% viability": 123.5}, {"smiles": "Cc1cc(Cn2nnc3c(-c4ccco4)nc(N)nc32)ccc1N", "note": "[ONC0003519, vipadenant]", "% viability": 66.76}, {"smiles": "O=C(Nc1cc(-c2ccccc2)nn1-c1ccccc1F)c1ccc([N+](=O)[O-])cc1", "note": "[ONC0001668, vu1545]", "% viability": 83.75}, {"smiles": "CC/C(=C(\\c1ccc(O)cc1)c1ccc(OCCNC)cc1)c1ccccc1", "note": "[ONC0004522, endoxifen hcl]", "% viability": 48.7}, {"smiles": "C#CCN(C)C(C)Cc1ccccc1", "note": "(stereo not shown) [ONC0004026, selegiline hydrochloride]", "% viability": 67.5}, {"smiles": "Cc1ccc(S(=O)(=O)Cc2nc(-c3ccc(C(=O)NCc4cccnc4)cc3)oc2C)cc1", "note": "[ONC0005103, stf118804]", "% viability": 70}, {"smiles": "c1ccc2c(c1)Sc1ccccc1N2CC1CN2CCC1CC2", "note": "(stereo not shown) [ONC0003208, levomequitazine]", "% viability": 71.99}, {"smiles": "CC(=C(CCOC(=O)C(C)C)SSC(CCOC(=O)C(C)C)=C(C)N(C=O)Cc1cnc(C)nc1N)N(C=O)Cc1cnc(C)nc1N", "note": "(stereo in doubt) [ONC0003382, sulbutiamine]", "% viability": 88.3}, {"smiles": "C=C1CC[C@@H]2[C@](C)(CO)[C@H](O)CC[C@@]2(C)[C@@H]1C/C=C1/C(=O)OC[C@H]1O", "note": "[ONC0005241, andrographolide]", "% viability": 99.59}, {"smiles": "Cc1cn([C@H]2C=C[C@@H](CO)O2)c(=O)[nH]c1=O", "note": "[ONC0004210, stavudine]", "% viability": 101}, {"smiles": "CCc1cccc(N(C)C(N)=Nc2cccc3ccccc23)c1", "note": "[ONC0004713, cerestat]", "% viability": 111.4}, {"smiles": "CC(=O)NS(=O)(=O)c1ccc(N)cc1", "note": "[ONC0000547, sulfacetamide]", "% viability": 84.05}, {"smiles": "O=C(O)[C@H]1CN(C/C=C/P(=O)(O)O)CCN1", "note": "[ONC0002611, midafotel]", "% viability": 84.16}, {"smiles": "CN1C(CCl)Nc2cc(Cl)c(S(N)(=O)=O)cc2S1(=O)=O", "note": "(stereo not shown) [ONC0004809, methyclothiazide]", "% viability": 66.17}, {"smiles": "C=CC1=C(C(=O)O)N2C(=O)[C@@H](NC(=O)/C(=N\\O)c3csc(N)n3)[C@H]2SC1", "note": "[ONC0004234, cefdinir]", "% viability": 60.91}, {"smiles": "COc1ccc(NS(=O)(=O)c2ccc(I)cc2)cc1N1CCN(C)CC1", "note": "[ONC0001661, sb258585]", "% viability": 76.38}, {"smiles": "O=C1NC(O)CCN1[C@@H]1O[C@H](CO)[C@@H](O)[C@H]1O", "note": "(stereo partly shown) [ONC0002970, tetrahydrouridine]", "% viability": 56.51}, {"smiles": "OCc1ccccc1O[C@@H]1O[C@H](CO)[C@@H](O)[C@H](O)[C@H]1O", "note": "[ONC0004099, salicin]", "% viability": 138.9}, {"smiles": "Cc1cccc(CC(=O)N2CCc3c2ccc(-c2cn(C)c4ncnc(N)c24)c3F)n1", "note": "[ONC0005148, gsk2656157]", "% viability": 97.56}, {"smiles": "C[C@@H]1C[C@H]2[C@@H]3CCC4=CC(=O)C=C[C@]4(C)[C@@]3(F)[C@@H](O)C[C@]2(C)[C@@]1(O)C(=O)COP(=O)(O)O", "note": "[ONC0000407, dexamethasone sodium phosphate]", "% viability": 67.46}, {"smiles": "CCN(CC)CCNC(C(=O)OCCC(C)C)c1ccccc1", "note": "(stereo not shown) [ONC0004025, camylofine dihydrochloride]", "% viability": 81.77}, {"smiles": "COc1cccc(Nc2ncnn3ccc(CN4CC[C@@H](N)[C@H](O)C4)c23)c1", "note": "[ONC0001177, bms690514]", "% viability": 112.7}, {"smiles": "Cc1cccc(C)c1NC(=O)N=C1CCCN1C", "note": "[ONC0002364, xilobam]", "% viability": 78.29}, {"smiles": "COc1ccc(-n2c(SCCCN3C(=O)c4cccc5cccc(c45)C3=O)nnc2-c2ccncc2)cc1", "note": "[ONC0000913, wiki4]", "% viability": 61.96}]}]}
